Test results published in article PMC10415123.
These are yes or no findings as the source states them, for the method shown. In cells and extracts the contact can be indirect. Some entries that bind do so weakly or less than the wild type.

By UniProt entry, the sequences of proteins in these tests, tags left out.
UniProt O16797: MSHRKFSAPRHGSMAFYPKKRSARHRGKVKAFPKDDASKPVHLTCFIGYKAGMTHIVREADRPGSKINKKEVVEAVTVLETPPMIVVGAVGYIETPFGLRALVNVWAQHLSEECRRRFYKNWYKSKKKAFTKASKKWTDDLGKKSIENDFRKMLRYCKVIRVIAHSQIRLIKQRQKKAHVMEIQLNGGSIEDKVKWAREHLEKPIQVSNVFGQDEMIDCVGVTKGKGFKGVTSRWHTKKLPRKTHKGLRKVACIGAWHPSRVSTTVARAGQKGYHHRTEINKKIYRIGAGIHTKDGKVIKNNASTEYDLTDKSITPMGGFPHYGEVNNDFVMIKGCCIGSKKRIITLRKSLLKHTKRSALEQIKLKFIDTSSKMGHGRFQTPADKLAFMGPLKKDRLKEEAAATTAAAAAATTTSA
UniProt P50880: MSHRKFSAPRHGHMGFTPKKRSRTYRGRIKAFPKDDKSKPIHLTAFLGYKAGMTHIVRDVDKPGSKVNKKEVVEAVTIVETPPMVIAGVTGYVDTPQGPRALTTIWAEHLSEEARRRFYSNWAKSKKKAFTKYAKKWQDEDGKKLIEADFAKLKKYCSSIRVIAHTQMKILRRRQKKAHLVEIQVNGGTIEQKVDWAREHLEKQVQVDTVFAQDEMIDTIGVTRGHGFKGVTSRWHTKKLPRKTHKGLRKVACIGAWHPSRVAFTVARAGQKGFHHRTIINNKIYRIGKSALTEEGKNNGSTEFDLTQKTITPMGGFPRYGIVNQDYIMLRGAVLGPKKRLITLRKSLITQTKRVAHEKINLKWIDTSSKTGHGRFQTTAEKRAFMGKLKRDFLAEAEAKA

T1: ribosomal P-stalk, P0-(P1-P2)2 complex (Drosophila) (Drosophila (endogenous in S2 cells)) (UniProt P19889+P08570+P05389)
T1 sequence 1: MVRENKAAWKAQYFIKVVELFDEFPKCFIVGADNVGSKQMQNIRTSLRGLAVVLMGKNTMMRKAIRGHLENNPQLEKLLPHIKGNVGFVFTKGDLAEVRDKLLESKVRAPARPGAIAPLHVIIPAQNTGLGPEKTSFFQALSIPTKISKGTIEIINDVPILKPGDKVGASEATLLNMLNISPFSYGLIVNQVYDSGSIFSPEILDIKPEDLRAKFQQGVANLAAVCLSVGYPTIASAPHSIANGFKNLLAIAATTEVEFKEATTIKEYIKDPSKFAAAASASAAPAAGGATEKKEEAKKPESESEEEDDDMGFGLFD
T1 sequence 2: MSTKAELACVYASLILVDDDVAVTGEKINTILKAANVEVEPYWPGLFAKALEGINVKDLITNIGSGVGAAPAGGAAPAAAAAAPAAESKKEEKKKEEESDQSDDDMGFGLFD
T1 sequence 3: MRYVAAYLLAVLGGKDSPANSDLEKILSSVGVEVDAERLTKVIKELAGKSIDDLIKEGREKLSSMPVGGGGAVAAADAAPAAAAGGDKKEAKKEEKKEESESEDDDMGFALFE

T2: ribosomal P-stalk, P0-(P1-P2)2 complex (C. elegans) (C. elegans (endogenous in worms)) (UniProt Q93572+P91913+O01504)
T2 sequence 1: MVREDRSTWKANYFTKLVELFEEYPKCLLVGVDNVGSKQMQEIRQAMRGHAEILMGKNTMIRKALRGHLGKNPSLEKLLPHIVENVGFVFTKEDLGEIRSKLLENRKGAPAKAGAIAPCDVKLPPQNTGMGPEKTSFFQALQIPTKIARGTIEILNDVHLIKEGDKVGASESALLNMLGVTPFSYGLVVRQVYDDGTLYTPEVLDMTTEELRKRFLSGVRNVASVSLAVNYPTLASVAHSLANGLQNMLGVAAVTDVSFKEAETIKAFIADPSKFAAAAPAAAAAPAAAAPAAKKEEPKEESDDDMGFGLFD
T2 sequence 2: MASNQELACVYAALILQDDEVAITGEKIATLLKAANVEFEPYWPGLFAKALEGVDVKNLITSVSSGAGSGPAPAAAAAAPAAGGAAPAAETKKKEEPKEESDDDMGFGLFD
T2 sequence 3: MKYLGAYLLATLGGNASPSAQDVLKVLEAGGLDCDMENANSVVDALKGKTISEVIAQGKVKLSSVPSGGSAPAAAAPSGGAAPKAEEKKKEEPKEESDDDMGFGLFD

B1: ribosomal protein uS15 (Drosophila) (protein, UniProt Q03334 1-151)
chain: MGRMHAPGKGISQSALPYRRTVPSWLKLNADDVKEQIKKLGKKGLTPSKIGIILRDSHGVAQVRFVNGNKILRIMKSVGLKPDIPEDLYHMIKKAVAIRKHLERNRKDKDGKFRLILVESRIHRLARYYKTKSVLPPNWKYESSTASALVA
B2: ribosomal protein uS15 (C. elegans) (protein, UniProt P51404 1-151)
chain: MGRMHNPGKGMAKSAIPYRRSVPSWQKMTAEEVQDQIVKMAKKGLRPSQIGVILRDSHGVGQVRRLAGNKIFRILKSKGMAPELPEDLYHLVKKAVAIRKHLERSRKDIDSKYRLILVESRIHRLARYYKTKRQLPPTWKYESGTAASLVS
B3: ribosomal protein uS3 (C. elegans) (protein, UniProt P48152 1-247)
chain: MAANQNVTKKKKAVIGGIFKAELNNFLMKELAEDGYSGVEVRSTPARAEVIIMATRTQNVLGERGRRIKELTSVVQKRFGFEEGSVELYAEKVSNRGLCAVAQCESLRYKLVGGLAVRRACYGVLRFIMESGAQGVEVIVSGKLRGQRAKAMKFVDGLMIHSGHPVNDYIQQAVRHVQLRQGVIGIKVKIMLPYDPRGQNGPRNALPDHVQIVEPQEEVLPKEPHSQHKEEKKDVQVPAAQPVAPVQ

What follows are molecules tested against T1, ribosomal P-stalk, P0-(P1-P2)2 complex (Drosophila) (Drosophila (endogenous in S2 cells)) (assay: co-IP; IP with 9D5 and Dynabeads Protein G from Drosophila S2 cell lysate, 4°C; 50 mM HEPES-NaOH pH 7.5, 10 mM MgCl2, 150 mM NaCl, 1% NP-40, cycloheximide; legend: in the presence of RNase A; western blotting).

binding	Molecule
binds	ribosomal protein uL3 (Drosophila) (from UniProt O16797 1-416)
binds	ribosomal protein uS3 (Drosophila) (from UniProt Q06559 1-246)
binds	B1

The molecules below were run against T2, ribosomal P-stalk, P0-(P1-P2)2 complex (C. elegans) (C. elegans (endogenous in worms)) (assay: co-IP; IP with 9D5 and Dynabeads Protein G from sonicated C. elegans lysate, 4°C; 50 mM HEPES-NaOH pH 7.5, 10 mM MgCl2, 150 mM NaCl, 1% NP-40, cycloheximide; legend: in the presence of RNase A; western blotting).

binding	Molecule
binds	ribosomal protein uL3 (C. elegans) (from UniProt P50880 1-401)
binds	B2
binds	B3
